## Library screen at single concentrations

The chains behind the UniProt entries cited, without tags or fusion partners. Residues count along the entry.
UniProt Q8IDJ8, 1-583: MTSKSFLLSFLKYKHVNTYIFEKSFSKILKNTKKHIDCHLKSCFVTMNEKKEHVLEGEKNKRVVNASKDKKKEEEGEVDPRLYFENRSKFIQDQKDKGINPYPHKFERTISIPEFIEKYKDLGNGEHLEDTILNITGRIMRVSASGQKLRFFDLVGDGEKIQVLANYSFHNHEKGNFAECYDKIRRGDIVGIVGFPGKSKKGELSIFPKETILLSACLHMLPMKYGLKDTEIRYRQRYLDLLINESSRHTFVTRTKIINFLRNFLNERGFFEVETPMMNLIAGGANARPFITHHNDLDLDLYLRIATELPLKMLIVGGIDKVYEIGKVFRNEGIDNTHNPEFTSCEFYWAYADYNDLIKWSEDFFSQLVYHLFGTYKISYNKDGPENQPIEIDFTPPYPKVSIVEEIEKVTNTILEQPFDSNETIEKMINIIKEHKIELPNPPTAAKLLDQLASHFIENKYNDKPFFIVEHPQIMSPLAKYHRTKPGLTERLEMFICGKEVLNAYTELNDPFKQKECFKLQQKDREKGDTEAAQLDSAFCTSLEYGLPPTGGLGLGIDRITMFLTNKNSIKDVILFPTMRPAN
UniProt Q4DA54, 1-478: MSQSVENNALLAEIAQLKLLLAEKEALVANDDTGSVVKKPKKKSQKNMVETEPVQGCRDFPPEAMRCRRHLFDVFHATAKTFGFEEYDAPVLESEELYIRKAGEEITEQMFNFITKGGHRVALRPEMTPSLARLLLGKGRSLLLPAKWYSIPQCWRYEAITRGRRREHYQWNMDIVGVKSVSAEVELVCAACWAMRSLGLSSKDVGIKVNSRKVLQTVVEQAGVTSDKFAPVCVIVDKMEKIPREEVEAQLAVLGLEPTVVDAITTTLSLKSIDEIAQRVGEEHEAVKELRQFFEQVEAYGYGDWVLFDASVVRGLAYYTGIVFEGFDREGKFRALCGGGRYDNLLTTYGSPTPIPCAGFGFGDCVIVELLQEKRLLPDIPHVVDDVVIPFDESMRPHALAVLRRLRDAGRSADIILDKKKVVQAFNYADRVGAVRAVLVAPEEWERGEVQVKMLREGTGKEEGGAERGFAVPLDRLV

Source: ChEMBL document CHEMBL3988442, “University of Dundee, Small-Polar-MMV Screening Library” (2021).

Leishmania in macrophages: 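Cell assay of Leishmania donovani living inside macrophages; the read-out is not stated. Tested at 30 µM. Direction is inferred from retests: higher values go with stronger inhibition. Of about 69,000 compounds tested this way, about 1,000 (1.5%) reached 50% or more in at least one test.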
T. brucei: 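Whole-parasite assay of Trypanosoma brucei over 72 hours; the read-out is not stated. Tested at 30 µM. Higher reads as stronger inhibition (inferred: compounds with an IC50 in retests scored well above the rest). Values scatter widely below zero; nearly all retest evidence comes from the higher of the two concentrations used. Size under these conditions: about 64,000 compounds, about 940 of them at 50% or above in at least one test.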
Toxoplasma: 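Assay of Toxoplasma gondii numbers, read through their beta-galactosidase reporter with a colour substrate. Concentration: 10 µM. The record gives no direction; the compounds picked for IC50 retests had high values, so higher reads as fewer parasites. About 67,000 compounds were tested under these conditions; 0.38% (about 260) showed 50% or more at least once.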
PfKRS1: 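Enzyme assay of the cytosolic lysyl-tRNA synthetase in 384-well plates, read by luminescence. Target: Lysine-tRNA ligase, Plasmodium falciparum 3D7 (UniProt Q8IDJ8). Concentration: 30 µM. Higher reads as stronger inhibition, judged from the few compounds that gave an IC50. Size under these conditions: about 69,000 compounds, about 49 of them at 50% or above in at least one test.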
TcHisRS: 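Enzyme assay of histidyl-tRNA synthetase; the read-out is not stated. Target: Histidine-tRNA ligase, Trypanosoma cruzi CL Brener (UniProt Q4DA54). Concentration: 30 µM. The record gives no direction; compounds that gave an IC50 in retests scored well above the rest, so higher reads as stronger inhibition. About 69,000 compounds were tested under these conditions; 0.045% (about 31) showed 50% or more at least once.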

Each number is a percent effect as filed. How 0% and 100% were set is not recorded. Most values in the screen are low, and negative values occur. The compounds are a random part of those screened. Two or more numbers in one place are separate tests of the same structure; such repeats can differ widely. A dash means the value is not listed here; it may have been measured.

SMILES: Cc1nc2c(c(N3C[C@@H](C)[C@@](C)(O)C3)n1)CCC2
Leishmania in macrophages: -10.03%
T. brucei: -10.37%
Toxoplasma: 1.274%
PfKRS1: -4.142%
TcHisRS: 2.521%

SMILES: O=C(C(CNCc1cccs1)c1ccccc1)N1CCOCC1 (centres unmarked)
Leishmania in macrophages: 10.67%
T. brucei: -36.58%
Toxoplasma: 16.01%
PfKRS1: 0.1436%
TcHisRS: -2.242%

SMILES: CC(C)NC(=O)c1ccc2c(c1)C1(CCN(C)CC1)C(=O)N2
PfKRS1: 0.2778%
TcHisRS: -1.869%

SMILES: Fc1ccc(-c2ccc(CNC3CCc4ncnn4C3)o2)cc1 (centres unmarked)
Leishmania in macrophages: 18.15%
T. brucei: 7.404%
Toxoplasma: -0.4113%
PfKRS1: 11.8%
TcHisRS: 3.704%

SMILES: Cc1cc(C)n(CC2CN(Cc3ccc4c(c3)OCCO4)CCO2)n1 (centres unmarked)
Leishmania in macrophages: -10.96%
T. brucei: -6.459%
Toxoplasma: 1.033%
PfKRS1: 3.471%
TcHisRS: 4.036%

SMILES: Cc1cc(-c2nnc(SCC(=O)O)n2C(C)c2ccccc2)nn1C (centres unmarked)
Leishmania in macrophages: 17.49%
T. brucei: 12.93%
Toxoplasma: -2.733%
PfKRS1: 3.178%
TcHisRS: 2.439%

SMILES: CCN(CC)Cc1cn2c(n1)CN(C1CCOC1)CC2 (centres unmarked)
PfKRS1: 4.167%
TcHisRS: 3.738%

SMILES: O=C(Nc1nc2c(s1)CN(S(=O)(=O)C1CC1)CC2)c1cccc(Cl)c1
Leishmania in macrophages: -46.6% and 4.339%
T. brucei: -10.19%
Toxoplasma: -0.4837%
PfKRS1: -4.026%
TcHisRS: 3.614%

SMILES: Cc1cc(C(=O)N2CCC3(CC2)C(=O)N(C)CCN3CC2CC2)c(C)o1
PfKRS1: 0.7561%
TcHisRS: 1.508%

SMILES: c1cc(CNCC2Cn3nncc3CO2)co1 (centres unmarked)
PfKRS1: 4.88%
TcHisRS: 6.897%

SMILES: CCn1ncc2c1CN(C(=O)Cc1cccs1)CC2COC.O=C(O)C(F)(F)F (centres unmarked)
Leishmania in macrophages: 29.54%
T. brucei: -19.45%
Toxoplasma: -0.5753%

SMILES: CS(=O)(=O)Cc1cccc(C(=O)NCC2Cc3ccccc3O2)c1 (centres unmarked)
Leishmania in macrophages: 33.61%
T. brucei: -68.57%
Toxoplasma: 1.642%
PfKRS1: -1.008%
TcHisRS: 2.479%

SMILES: Cn1cc(CC(CNC(=O)Nc2cccc(Cl)c2)C(N)=O)cn1 (centres unmarked)
Leishmania in macrophages: 12.48%
T. brucei: -16.11%
Toxoplasma: -5.915%
PfKRS1: 0.3207%
TcHisRS: 4.444%

SMILES: CCC(C)NC(=O)CN1CCC2(CC1)OCCO2 (centres unmarked)
Leishmania in macrophages: 16.29%
T. brucei: 1.351%
Toxoplasma: -1.268%
PfKRS1: -2.703%
TcHisRS: 1.111%

SMILES: Cc1ccc(C(C(=O)NCCN2CCC(CO)CC2)N(C)C)cc1 (centres unmarked)
Leishmania in macrophages: 25.71%
T. brucei: -31.93%
Toxoplasma: -44.8%
PfKRS1: -4.019%
TcHisRS: 8.642%

SMILES: Cc1cc(C(=O)N2CCC(Nc3cccnc3)CC2)c(C)s1
Leishmania in macrophages: -18.04%
T. brucei: -28.16%
Toxoplasma: -2.636%
PfKRS1: 2.857%
TcHisRS: 5.025%

For reference, 2 entries once more:

SMILES	Leishmania in macrophages	T. brucei	Toxoplasma	PfKRS1	TcHisRS
CCn1ncc2c1CN(C(=O)Cc1cccs1)CC2COC.O=C(O)C(F)(F)F (centres unmarked)	29.54%	-19.45%	-0.5753%	-	-
O=C(Nc1nc2c(s1)CN(S(=O)(=O)C1CC1)CC2)c1cccc(Cl)c1	-46.6% and 4.339%	-10.19%	-0.4837%	-4.026%	3.614%